From US20090155228

Test system: PPARgamma:RXRalpha heterodimer (cells)
Assay: activity in cells
Conditions: COS1 reporter; further elevated by 1 uM rosiglitazone; protein in cells

Question: With “GTGGTGGAGGGCAGAGGGCAATGGCTTGGAAGGCTGTGAGTCACTTAACCTTTAACCTTGTGCAAATCAGTCTCCTTTGCACTGGTGACTTATCTGTAAAATGAGGAAAGTCATCTAACATCTGACCTAATGAGGAAGGTCCTTTTTCTC (double strand) [ABCG2 enhancer 150 bp (-3946/-3796)]” as the sequence, how does the “activity on this sequence” value read?
Answer: The value was “active”.
